Test results taken from PubChem BioAssay AID248 (DTP/NCI, 2004).
The list shows only some results of the screen, not a fair sample: it gathers tests that were run many times, whatever their T/C, doses with no T/C, and many T/C values between a quarter and a half above the control. Further doses and runs are listed elsewhere. T/C gives the treated animals as a percentage of the vehicle group. Some entries give survivors of the animals treated and no T/C: the source files T/C as zero there, which appears to mark a toxic dose or a test without result, not a measured value. Some doses without a T/C left all or most animals alive at the check, yet need not have been tolerated: the source hardly ever lists a survival T/C far under the control, and the zero likely stands for such cases as well. Survivors were counted at the toxicity check, usually on the fifth day, unless a day is given; later deaths do not show. Schedules are NCI's codes, taken here to give the interval after Q, in days (D) or hours (H), and the number of doses after X. Some entries hold several experiments; the results are listed from low to high. Some schedules carry Z or #; the key to these is not given. Where survival is the endpoint, the PubChem record calls one and a half times the control and up active, and a quarter to a half above the control has no call in these data; cut-offs in other NCI protocols can differ.

System: L1210 leukemia ip in BDF1 mice, survival T/C
Assay: NCI In Vivo Anticancer Drug Screen. Data for tumor model L1210 Leukemia (intraperitoneal) in B6D2F1 (BDF1) mice
Details: T/C endpoint: mean survival time, higher T/C = longer survival
[1] = dose: 400.0 mg/kg/injection, schedule: Q01DX009 (ip), vehicle: Klucel (hydroxypropylcellulose) (HPC)
[2] = dose: 200.0 mg/kg/injection, schedule: Q04DX003 (ip), vehicle: Klucel (hydroxypropylcellulose) (HPC)
[3] = dose: 400.0 mg/kg/injection, schedule: Q04DX003 (ip), vehicle: Klucel (hydroxypropylcellulose) (HPC)
[4] = dose: 200.0 mg/kg/injection, schedule: Q01DX009 (ip), vehicle: saline with Tween-80
[5] = dose: 400.0 mg/kg/injection, schedule: Q01DX009 (ip), vehicle: saline with Tween-80
[6] = dose: 100.0 mg/kg/injection, schedule: Q01DX009 (ip), vehicle: saline with Tween-80
[7] = dose: 200.0 mg/kg/injection, schedule: Q01DX009 (ip), vehicle: Klucel (hydroxypropylcellulose) (HPC)

Question: `CC/C(C)=N\NC(N)=S` was tested. Which survivor count (dose: 25.0 mg/kg/injection, schedule: Q01DX009 (ip), vehicle: Klucel (hydroxypropylcellulose) (HPC)) did it give?
Answer: Its survivor count is 5 of 6.

Question: And the survivor count (dose: 50.0 mg/kg/injection, schedule: Q04DX002 (ip), vehicle: Klucel (hydroxypropylcellulose) (HPC))?
Answer: The survivor count was 0 of 3.

Question: And the survivor count (dose: 100.0 mg/kg/injection, schedule: Q04DX002 (ip), vehicle: Klucel (hydroxypropylcellulose) (HPC))?
Answer: The survivor count was 0 of 3.

Question: What about the survivor count (dose: 200.0 mg/kg/injection, schedule: Q04DX002 (ip), vehicle: Klucel (hydroxypropylcellulose) (HPC)) of the same molecule?
Answer: Its survivor count is 0 of 3.

Question: And the survivor count (dose: 400.0 mg/kg/injection, schedule: Q04DX002 (ip), vehicle: Klucel (hydroxypropylcellulose) (HPC))?
Answer: Its survivor count is 0 of 3.

Question: `N#Cc1c(Cl)nsc1Cl` was tested. Which survivor count [1] did it give?
Answer: Its survivor count is 3 of 6.

Question: With `Cc1ncc(CO)c(Nc2ccccc2Cl)n1` as the molecule, how does the survivor count (dose: 100.0 mg/kg/injection, schedule: Q04DX003 (ip), vehicle: Klucel (hydroxypropylcellulose) (HPC)) read?
Answer: The survivor count was 3 of 6.

Question: What about the survivor count [2] of the same molecule?
Answer: The survivor count was 0 of 6.

Question: And the survivor count [3]?
Answer: The survivor count was 0 of 6.

Question: For `c1ccc(-n2nc3c(c2OCCN2CCCC2)CCCc2ccccc2-3)cc1`, which survivor count [4] is on record?
Answer: Its survivor count is 0 of 6.

Question: And the survivor count [5]?
Answer: The survivor count was 0 of 6.

Question: `O=C(Nc1cccc(C(F)(F)F)c1)c1ccc(C(=O)Nc2cccc(C(F)(F)F)c2)cc1` was tested. Which survivor count [6] did it give?
Answer: Its survivor count is 6 of 6.

Question: What about the survivor count [4] of the same molecule?
Answer: Its survivor count is 5 of 6.

Question: What does the source list for `O=C(Nc1ccc(I)cc1)Nc1ccc(Cl)cc1[N+](=O)[O-]`?
Answer: survivor count [4]: 6 of 6; survivor count [5]: 3 of 3 and 6 of 6

Question: For `Nc1cc(C(=O)O)[nH]c(=O)n1`, which survivor count (dose: 200.0 mg/kg/injection, schedule: Q01DX Z (ip), vehicle: methylcellulose (MC)) is on record?
Answer: Its survivor count is 6 of 6.

Question: With `Cc1cc(NC(=O)Nc2ccc(Cl)cc2C)no1` as the molecule, how does the survivor count (dose: 100.0 mg/kg/injection, schedule: Q01DX009 (ip), vehicle: Klucel (hydroxypropylcellulose) (HPC)) read?
Answer: Its survivor count is 6 of 6.

Question: What about the survivor count [7] of the same molecule?
Answer: Its survivor count is 6 of 6.

Question: And the survivor count [1]?
Answer: The survivor count was 6 of 6.

Question: How did the T/C (dose: 3.12 mg/kg/injection, schedule: Q01DX009 (ip), vehicle: water) turn out when `COc1cc(NS(C)(=O)=O)ccc1Nc1c2ccc(Cl)cc2nc2c(OC)cccc12` was run?
Answer: Its T/C is 129 % of control.

Question: What about the survivor count (dose: 25.0 mg/kg/injection, schedule: Q01DX009 (ip), vehicle: water) of the same molecule?
Answer: Its survivor count is 2 of 6.

Question: And the T/C (dose: 66.0 mg/kg/injection, schedule: Q04DX003 (ip), vehicle: saline with Tween-80)?
Answer: The T/C was 143 % of control.

Question: What about the survivor count (dose: 99.0 mg/kg/injection, schedule: Q04DX003 (ip), vehicle: saline with Tween-80) of the same molecule?
Answer: The survivor count was 6 of 6.

Question: What about the survivor count [6] of the same molecule?
Answer: Its survivor count is 6 of 6.

Question: What about the survivor count (dose: 150.0 mg/kg/injection, schedule: Q04DX003 (ip), vehicle: saline with Tween-80) of the same molecule?
Answer: Its survivor count is 6 of 6.

Question: What about the survivor count [4] of the same molecule?
Answer: The survivor count was 5 of 6.

Question: And the survivor count [5]?
Answer: Its survivor count is 3 of 6.

Question: For `CN(/N=N/c1nc[nH]c1C(=O)NN)C1CCCCC1`, which survivor count (dose: 400.0 mg/kg/injection, schedule: Q01DX001 (ip), vehicle: other) is on record?
Answer: Its survivor count is 1 of 4.

Question: How did the survivor count [5] turn out when `CCOC(=O)CCC[P+](c1ccccc1)(c1ccccc1)c1ccccc1` was run?
Answer: Its survivor count is 0 of 6.

Question: Which results are given for `[N-]=[N+]=C1C(=O)NN=C1c1ccccc1`?
Answer: survivor count [7]: 0 of 6; survivor count [2]: 5 of 6 and 6 of 6; survivor count [3]: 0 of 6 and 2 of 6

Question: With `Cc1cc(C)c(NC2=NCCS2)cc1C` as the molecule, how does the survivor count (dose: 200.0 mg/kg/injection, schedule: Q04DX002 (ip), vehicle: saline with Tween-80) read?
Answer: The survivor count was 2 of 3.

Question: What about the survivor count (dose: 400.0 mg/kg/injection, schedule: Q04DX002 (ip), vehicle: saline with Tween-80) of the same molecule?
Answer: The survivor count was 0 of 3.

Question: How did the survivor count (dose: 200.0 mg/kg/injection, schedule: Q01DX001 (ip), vehicle: saline) turn out when `CCC[n+]1nsc2ccccc21` was run?
Answer: Its survivor count is 0 of 6.

Question: What about the survivor count (dose: 400.0 mg/kg/injection, schedule: Q01DX001 (ip), vehicle: saline) of the same molecule?
Answer: The survivor count was 0 of 6.

Question: With `CCCCCCCCCCCCCCCCNCCCN` as the molecule, how does the survivor count (dose: 400.0 mg/kg/injection, schedule: Q04DX003 (ip), vehicle: saline with Tween-80) read?
Answer: The survivor count was 1 of 6.

Question: Which survivor count (dose: 400.0 mg/kg/injection, schedule: Q04DX003 (ip), vehicle: saline) does the source give for `CNC(=O)NC(=O)C(C)(C)Oc1ccc(Cl)cc1` here?
Answer: The survivor count was 3 of 3.

Question: With `Clc1nc(Cl)c(Cl)[nH]1` as the molecule, how does the survivor count (dose: 25.0 mg/kg/injection, schedule: Q01DX009 (ip), vehicle: saline with Tween-80) read?
Answer: Its survivor count is 0 of 6.

Question: What about the survivor count [6] of the same molecule?
Answer: Its survivor count is 0 of 6.

Question: What about the survivor count [4] of the same molecule?
Answer: The survivor count was 0 of 6.

Question: What about the survivor count [5] of the same molecule?
Answer: The survivor count was 0 of 6.
